Experimental data: the supplement of paper PMC9578143, “Small-Molecule Ebselen Binds to YTHDF Proteins Interfering with the Recognition of N^6-Methyladenosine-Modified RNAs” (ACS Pharmacology & Translational Science, 2022)
This is one part of the list. Part of the spread comes from offsets between plates or batches.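 Hits were defined as a z-score below −3.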

target: T1, YTHDF1 YTH domain (aa 365-554) (UniProt Q9BYJ9); assay: tryptophan fluorescence intensity z-score (mean); higher = higher fluorescence, less quenching (negative = binding / quenching); settings: 10 µM
T1 sequence (whole entry): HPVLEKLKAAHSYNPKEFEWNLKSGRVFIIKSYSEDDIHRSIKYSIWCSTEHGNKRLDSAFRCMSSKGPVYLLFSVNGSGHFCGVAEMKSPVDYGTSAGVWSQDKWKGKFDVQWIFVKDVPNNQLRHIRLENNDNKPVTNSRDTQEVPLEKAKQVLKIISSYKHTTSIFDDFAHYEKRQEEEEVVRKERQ

Tryptophan fluorescence intensity z-score, inactive:
CS(=O)(=O)c1ccc(C2=C(c3ccccc3)C(=O)OC2)cc1 (plate: M 9-10) -0.213, COc1ccc2c(c1OC)OC[C@@H](c1ccc(OC)c(OC)c1OC)C2 (plate: M 15-16) 0.458, COC(=O)C[C@H]1C(C)(C)C(=O)[C@@H]2CC3=C(CC[C@]4(C)C3=CC(=O)O[C@H]4c3ccoc3)[C@@]1(C)C2=O (plate: M 13-14) 0.25, COc1cc(O)cc(O)c1C(C)=O (plate: M 21-22) 0.263, O=C(Nc1ccccc1)c1ccccc1O (plate: M 1-2) 0.837, C=C1C(=O)[C@]23[C@H](CC[C@@H]1[C@@H]2O)[C@]12CO[C@@]3(O)[C@H](O)[C@H]1C(C)(C)CC[C@@H]2O (plate: M 19-20) 0.432, CCC(=O)OC1[C@@H]2CC3=C4CC(=O)O[C@@H](c5ccoc5)[C@]4(C)CCC3[C@@](C)(C2=O)[C@@H](CC(=O)OC)C1(C)C (some centres not stated) (plate: M 13-14) 0.0465, COc1cc(OC)c2c(OC)c(-c3ccc4c(c3)OCO4)c(=O)oc2c1 (plate: M 21-22) 0.247, CN1C(C(=O)Nc2ccccn2)=C(O)c2sccc2S1(=O)=O (plate: M 7-8) -0.397, CC(=O)Oc1ccc2c(c1)CC[C@@H]1[C@@H]2CC[C@]2(C)[C@@H](OC(C)=O)CC[C@@H]12 (plate: M 21-22) 0.163, Cc1ncc([N+](=O)[O-])n1CC(O)CCl (configuration not stated) (plate: M 11-12) -0.088, COc1cc(/C=C/C(=O)N2CCC=CC2=O)cc(OC)c1OC (plate: M 19-20) 0.376, CN(C)c1ccc2nc3ccc(=[N+](C)C)cc-3sc2c1 (plate: M 11-12) 0.331, COc1ccc(C2C(=O)c3ccccc3C2=O)cc1 (plate: M 7-8) -0.112, Cc1cccc(C)c1NC(=O)C1CCCCN1C (configuration not stated) (plate: M 9-10) 0.0448, C=C[C@H]1CN2CC[C@H]1C[C@@H]2[C@@H](O)c1ccnc2ccc(OC)cc12 (plate: M 5-6) -0.2, Cc1c(C(N)=O)cc([N+](=O)[O-])cc1[N+](=O)[O-] (plate: M 21-22) 0.485, C[C@]12CC[C@H]3C(=CCc4cc(O)ccc43)[C@@H]1CCC2=O (plate: M 3-4) 0.061, C[C@]12C=CC(=O)C=C1CC[C@@H]1[C@@H]2[C@@H](O)C[C@@]2(C)[C@H]1CC[C@]2(O)C(=O)COP(=O)(O)O (plate: M 11-12) 0.463, CCCCCC/C=C\CCCCCCCc1cccc(O)c1C(=O)O (plate: M 19-20) 0.158, N=C(N)N (plate: M 23-24) 0.663, CC(=O)Oc1cc(C)c2c(c1C(OC(C)=O)OC(C)=O)Oc1c(c(C)c(OC(C)=O)c3c1C(OC(C)=O)OC3=O)OC2=O (configuration not stated) (plate: M 15-16) -0.0494, COc1ccc2oc(-c3ccccc3)c(OC)c(=O)c2c1 (plate: M 17-18) -0.331, O=C(O)c1cc(=O)c2ccccc2o1 (plate: M 21-22) 0.106, CC(=O)CC(=O)CCC(=O)O (plate: M 21-22) 0.594, NS(=O)(=O)c1cc(C(=O)O)c(NCc2ccco2)cc1Cl (plate: M 3-4) -0.423, COc1ccc2ccc(=O)oc2c1 (plate: M 15-16) 0.34, O=C(O)c1cc2cc(Cl)ccc2[nH]1 (plate: M 21-22) 0.775, Cc1cc(C2CCCCC2)n(O)c(=O)c1 (plate: M 1-2) -0.188, NS(=O)(=O)c1cc2c(cc1Cl)N=CNS2(=O)=O (plate: M 1-2) -0.158, C[C@H](N)C(=O)NC(Cc1ccccc1)C(=O)O (mixture of isomers) (plate: M 23-24) 0.546, CN[C@H](CC(C)C)C(=O)N[C@H]1C(=O)N[C@@H](CC(N)=O)C(=O)N[C@H]2C(=O)N[C@H]3C(=O)N[C@H](C(=O)N[C@H](C(=O)O)c4cc(O)cc(O)c4-c4cc3ccc4O)[C@H](O)c3ccc(c(Cl)c3)Oc3cc2cc(c3O[C@@H]2O[C@H](CO)[C@@H](O)[C@H](O)[C@H]2O[C@H]2C[C@](C)(N)[C@H](O)[C@H](C)O2)Oc2ccc(cc2Cl)[C@H]1O (plate: M 5-6) -0.0451, CNS(=O)(=O)Cc1ccc2[nH]cc(CCN(C)C)c2c1 (plate: M 11-12) 0.0319, O=c1c(O)c(-c2ccc(O)c(O)c2)oc2cc(O)ccc12 (plate: M 19-20) -0.659, CC1=CC2C(C(C)C)CCC(C)(O)C2CC1 (configuration not stated) (plate: M 17-18) 0.0902, C=NC(C(=O)NC1C(=O)N2C1SC(C)(C)C2C(=O)O)c1ccccc1 (configuration not stated) (plate: M 21-22) 0.398, NC(=O)c1ncn([C@@H]2O[C@H](CO)[C@@H](O)[C@H]2O)n1 (plate: M 9-10) 0.244, CCC(CCC(C)C1CCC2C3CCC4CC(O)CCC4(C)C3CCC12C)C(C)C (configuration not stated) (plate: M 19-20) 0.681, CCOC(=O)[C@H](CCc1ccccc1)N[C@@H](C)C(=O)N1[C@H](C(=O)O)C[C@@H]2CCC[C@@H]21 (plate: M 9-10) -0.382, O=C(Nc1ccc(C(=O)O)c(O)c1)c1ccccc1 (plate: M 11-12) -0.0307, CCCCOC(=O)c1ccc(N)cc1 (plate: M 5-6) 0.252, C[C@H]1COC2=C1C(=O)C(=O)c1c2ccc2c1CCCC2(C)C (plate: M 21-22) -0.421, CCCCC1=NC2(CCCC2)C(=O)N1Cc1ccc(-c2ccccc2-c2nnn[nH]2)cc1 (plate: M 9-10) -0.211, CCOc1ccc(C(=O)c2ccc(OC)c(O)c2O)cc1 (plate: M 15-16) -0.654, N=C(N)NC(=O)c1nc(Cl)c(N)nc1N (plate: M 1-2) -0.0139, CC(=O)O[C@H]1CC[C@]2(C)C(C[C@@H](OC(C)=O)[C@]3(C)C4=CC(=O)O[C@H](c5ccoc5)[C@@]4(C)CCC23)C1(C)C (stereo partly drawn) [3-DEOXO-3beta-ACETOXYDEOXYDIHYDROGEDUNIN] (plate: M 13-14) -0.131, NC1(C(=O)O)CCC1 (plate: M 23-24) 0.71
